From patent publication US9567301B2, “Pyrrol-1-yl benzoic acid derivatives useful as myc inhibitors” (Whitehead Institute for Biomedical Research, priority 2012, dated 2017) come the findings set out here.

The chains behind the UniProt entries cited, without tags or fusion partners. Residues count along the entry.
UniProt P01106, 16-454: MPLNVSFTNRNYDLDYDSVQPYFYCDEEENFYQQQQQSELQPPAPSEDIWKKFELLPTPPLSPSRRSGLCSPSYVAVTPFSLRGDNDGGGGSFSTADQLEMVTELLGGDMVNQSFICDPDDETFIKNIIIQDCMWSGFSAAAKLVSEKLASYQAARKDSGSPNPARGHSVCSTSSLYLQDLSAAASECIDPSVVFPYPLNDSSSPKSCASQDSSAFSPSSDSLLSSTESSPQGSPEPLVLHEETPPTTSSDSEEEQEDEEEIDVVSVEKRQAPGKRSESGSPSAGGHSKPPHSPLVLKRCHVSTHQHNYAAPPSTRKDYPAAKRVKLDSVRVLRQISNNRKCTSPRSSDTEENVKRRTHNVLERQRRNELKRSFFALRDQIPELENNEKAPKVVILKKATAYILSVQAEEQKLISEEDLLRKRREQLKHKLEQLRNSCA

For one assay, the system named is MM1S cells. Put plainly: Cell viability assay (ATPlite), MM1S. The class given is cell-based, human. The conditions noted are these: read-out: MM1S EC50, three days, NA: inactive under assay conditions.
In the next assay the target is c-Myc/Max/Ebox DNA (Homo sapiens, UniProt P01106). Put plainly: c-Myc/Max/Ebox DNA AlphaScreen assay. The class given is binding. The conditions noted are these: read-out: Biochemical IC50, NA: inactive under assay conditions. In general terms: Bead proximity is the source of the signal in Alpha formats.
A further assay concerns H2171 cells. Nature of the assay: Cell viability assay (ATPlite), H2171. The class given is cell-based, human. The conditions noted are these: read-out: H2171 EC50, three days, NA: inactive under assay conditions. For orientation: In ATP-based viability assays light output follows the ATP content of the culture.

SMILES strings stand for the structures. The match of structure and compound is tentative.

The EC50 is the concentration that produces a half-maximal response. What is called IC50 is the concentration that gives 50% inhibition. For `Cc1ccc(C)n1-c1cc(C(=O)N/N=C/C2CNc3ccc(C#N)cc32)ccc1C(=O)O` (stereo not drawn), the EC50 with MM1S cells was found to be 5.75 µM; with H2171 cells, 3240 µM. For the same compound, the IC50 on c-Myc/Max/Ebox DNA came out at 17.1 µM.
